From patent US6326471A, “Immunogenic peptides of prostate specific antigen” (priority 1998, dated 2001)
At least one peptide structure holds a part that was inferred or is arguable (an end, a ring closure or a residue). Residues, ends and D or L forms follow the SMILES beside them. No end group written: not given here.

Key:
[1] = test system: antiserum antibody population that binds to TINKED; assay: Competitive ELISA with rabbit antiserum to TINKEDDESPGLYG linked to keyhole limpet hemocyanin; format: binding; conditions: for affinity of the antiserum for the peptide (comparative): competitive ELISA, 5 mer vs 11 mer, 14 mer vs 11 mer
[2] = test system: rabbit antiserum to TINKEDDESPGLYG; assay: ELISA binding of rabbit antiserum to TINKEDDESPGLYG-KLH to peptide

Compound	affinity of the antiserum for the peptide (comparative) [1]	further results
CC[C@H](C)[C@H](NC(=O)[C@@H](N)[C@@H](C)O)C(=O)N[C@@H](CC(N)=O)C(=O)O [TIN] (H-Thr-Ile-Asn-OH)	–	inhibition of binding of the antiserum to TINKED ([1]; ELISA): partially inhibits
NKEDDES [NKEDDES]	–	binding of the antiserum to the peptide [2]: does not bind
TINKE [TINKE]	the same	–
TINKEDDESPG [TINKEDDESPG]	the same	–
TINKEDDESPGLYG [TINKEDDESPGLYG]	greater	–
